The results in this text go back to publication doi:10.1101/2021.10.07.463531.

Test [1] deals with T1, HA-Bicc1 (full-length, wild type) (UniProt Q99MQ1).
T1 sequence: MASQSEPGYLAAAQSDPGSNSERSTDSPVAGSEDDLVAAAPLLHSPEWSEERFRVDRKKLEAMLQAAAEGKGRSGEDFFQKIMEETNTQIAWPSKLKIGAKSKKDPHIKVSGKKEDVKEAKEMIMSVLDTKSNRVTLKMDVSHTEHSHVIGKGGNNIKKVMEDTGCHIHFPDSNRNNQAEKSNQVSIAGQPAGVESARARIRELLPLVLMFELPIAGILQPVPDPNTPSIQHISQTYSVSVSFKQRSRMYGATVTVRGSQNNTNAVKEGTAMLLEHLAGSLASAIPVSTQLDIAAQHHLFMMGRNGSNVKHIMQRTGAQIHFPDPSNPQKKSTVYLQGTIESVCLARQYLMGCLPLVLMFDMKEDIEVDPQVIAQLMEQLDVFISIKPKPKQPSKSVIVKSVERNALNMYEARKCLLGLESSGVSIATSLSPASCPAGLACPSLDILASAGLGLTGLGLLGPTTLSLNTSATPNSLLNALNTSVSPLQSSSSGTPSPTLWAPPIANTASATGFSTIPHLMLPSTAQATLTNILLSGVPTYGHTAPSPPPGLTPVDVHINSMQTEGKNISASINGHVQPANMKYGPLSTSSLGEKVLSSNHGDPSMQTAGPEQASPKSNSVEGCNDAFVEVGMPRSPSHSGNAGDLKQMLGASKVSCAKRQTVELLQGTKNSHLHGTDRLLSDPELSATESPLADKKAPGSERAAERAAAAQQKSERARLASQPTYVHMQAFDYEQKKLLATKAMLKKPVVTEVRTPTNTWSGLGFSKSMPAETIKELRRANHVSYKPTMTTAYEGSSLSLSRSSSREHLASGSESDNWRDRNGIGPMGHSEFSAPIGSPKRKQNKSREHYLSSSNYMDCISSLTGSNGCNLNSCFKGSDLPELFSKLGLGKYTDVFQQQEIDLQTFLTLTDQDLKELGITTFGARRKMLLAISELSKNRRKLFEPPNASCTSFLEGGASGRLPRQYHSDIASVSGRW
Description: co-IP.

The next test deals with T2, HA-Bicc1 mutD (UniProt Q99MQ1).
T2 sequence: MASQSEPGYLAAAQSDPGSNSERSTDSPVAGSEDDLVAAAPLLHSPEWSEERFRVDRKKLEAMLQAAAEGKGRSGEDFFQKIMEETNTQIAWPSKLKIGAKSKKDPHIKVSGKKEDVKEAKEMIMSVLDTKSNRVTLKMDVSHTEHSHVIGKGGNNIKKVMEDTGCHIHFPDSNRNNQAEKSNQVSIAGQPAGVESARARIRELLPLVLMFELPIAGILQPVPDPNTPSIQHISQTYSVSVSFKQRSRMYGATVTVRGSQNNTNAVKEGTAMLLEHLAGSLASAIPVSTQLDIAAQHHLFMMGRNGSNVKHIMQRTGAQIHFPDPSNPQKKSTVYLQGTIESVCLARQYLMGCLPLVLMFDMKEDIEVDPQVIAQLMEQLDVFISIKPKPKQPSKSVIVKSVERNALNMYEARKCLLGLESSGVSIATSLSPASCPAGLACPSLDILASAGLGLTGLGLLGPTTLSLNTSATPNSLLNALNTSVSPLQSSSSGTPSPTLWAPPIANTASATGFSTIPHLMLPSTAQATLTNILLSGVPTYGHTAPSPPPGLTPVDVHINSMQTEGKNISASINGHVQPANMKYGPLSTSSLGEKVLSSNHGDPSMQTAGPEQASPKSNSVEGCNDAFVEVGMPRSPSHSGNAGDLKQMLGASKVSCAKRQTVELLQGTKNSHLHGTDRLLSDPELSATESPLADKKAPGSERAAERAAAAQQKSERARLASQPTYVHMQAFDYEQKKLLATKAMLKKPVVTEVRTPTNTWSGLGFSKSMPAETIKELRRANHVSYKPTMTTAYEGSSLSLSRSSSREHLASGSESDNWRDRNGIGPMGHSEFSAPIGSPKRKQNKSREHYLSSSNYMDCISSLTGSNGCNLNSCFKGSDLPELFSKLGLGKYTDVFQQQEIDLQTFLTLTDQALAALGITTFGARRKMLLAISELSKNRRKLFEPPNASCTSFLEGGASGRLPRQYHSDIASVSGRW
Description: co-IP.

Test [2] addresses fusion of ANKS3 with the DNA-binding domain of Gal4 (Gal4-BD) (UniProt Q6ZW76). Description: two-hybrid.
Test [3] has as its target T3, GST-Bicc1 (full-length, wild type) (UniProt Q99MQ1).
T3 sequence: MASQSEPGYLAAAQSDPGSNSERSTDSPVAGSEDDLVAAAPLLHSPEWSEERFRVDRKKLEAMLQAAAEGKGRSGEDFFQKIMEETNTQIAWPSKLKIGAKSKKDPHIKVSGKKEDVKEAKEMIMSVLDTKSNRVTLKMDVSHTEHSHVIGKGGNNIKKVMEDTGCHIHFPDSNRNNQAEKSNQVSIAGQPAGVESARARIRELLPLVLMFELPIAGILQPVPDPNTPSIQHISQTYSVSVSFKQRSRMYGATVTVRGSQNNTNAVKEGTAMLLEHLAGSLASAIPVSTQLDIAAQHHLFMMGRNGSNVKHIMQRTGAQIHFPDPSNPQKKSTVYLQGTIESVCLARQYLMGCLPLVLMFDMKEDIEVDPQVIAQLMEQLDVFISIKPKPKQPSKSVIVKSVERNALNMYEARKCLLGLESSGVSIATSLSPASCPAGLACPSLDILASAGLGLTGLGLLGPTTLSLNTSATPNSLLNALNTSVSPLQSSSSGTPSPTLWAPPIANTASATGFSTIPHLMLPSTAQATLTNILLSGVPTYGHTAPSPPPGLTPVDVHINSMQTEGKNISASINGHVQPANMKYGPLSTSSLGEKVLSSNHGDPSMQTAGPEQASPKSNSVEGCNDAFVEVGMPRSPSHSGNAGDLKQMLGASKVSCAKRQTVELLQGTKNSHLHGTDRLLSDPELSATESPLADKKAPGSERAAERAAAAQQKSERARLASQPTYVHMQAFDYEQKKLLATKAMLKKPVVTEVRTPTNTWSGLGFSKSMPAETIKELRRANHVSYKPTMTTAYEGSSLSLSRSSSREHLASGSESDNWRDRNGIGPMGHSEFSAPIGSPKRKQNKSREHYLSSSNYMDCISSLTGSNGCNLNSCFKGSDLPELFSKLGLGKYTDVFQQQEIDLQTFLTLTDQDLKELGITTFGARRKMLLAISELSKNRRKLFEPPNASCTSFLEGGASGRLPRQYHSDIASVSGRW
Description: pull-down.

No constants are given. Whether binding was seen depends on the method and setting. For some assays here: Binding seen in cells or lysates may run through a third protein. Some results given as binding are weak or reduced against the parent protein; the word gives no strength. Tags and fused reporters may be left off the sequences shown.

B1: GFP-Bicc1 (protein, UniProt Q99MQ1 1-977)
chain: MASQSEPGYLAAAQSDPGSNSERSTDSPVAGSEDDLVAAAPLLHSPEWSEERFRVDRKKLEAMLQAAAEGKGRSGEDFFQKIMEETNTQIAWPSKLKIGAKSKKDPHIKVSGKKEDVKEAKEMIMSVLDTKSNRVTLKMDVSHTEHSHVIGKGGNNIKKVMEDTGCHIHFPDSNRNNQAEKSNQVSIAGQPAGVESARARIRELLPLVLMFELPIAGILQPVPDPNTPSIQHISQTYSVSVSFKQRSRMYGATVTVRGSQNNTNAVKEGTAMLLEHLAGSLASAIPVSTQLDIAAQHHLFMMGRNGSNVKHIMQRTGAQIHFPDPSNPQKKSTVYLQGTIESVCLARQYLMGCLPLVLMFDMKEDIEVDPQVIAQLMEQLDVFISIKPKPKQPSKSVIVKSVERNALNMYEARKCLLGLESSGVSIATSLSPASCPAGLACPSLDILASAGLGLTGLGLLGPTTLSLNTSATPNSLLNALNTSVSPLQSSSSGTPSPTLWAPPIANTASATGFSTIPHLMLPSTAQATLTNILLSGVPTYGHTAPSPPPGLTPVDVHINSMQTEGKNISASINGHVQPANMKYGPLSTSSLGEKVLSSNHGDPSMQTAGPEQASPKSNSVEGCNDAFVEVGMPRSPSHSGNAGDLKQMLGASKVSCAKRQTVELLQGTKNSHLHGTDRLLSDPELSATESPLADKKAPGSERAAERAAAAQQKSERARLASQPTYVHMQAFDYEQKKLLATKAMLKKPVVTEVRTPTNTWSGLGFSKSMPAETIKELRRANHVSYKPTMTTAYEGSSLSLSRSSSREHLASGSESDNWRDRNGIGPMGHSEFSAPIGSPKRKQNKSREHYLSSSNYMDCISSLTGSNGCNLNSCFKGSDLPELFSKLGLGKYTDVFQQQEIDLQTFLTLTDQDLKELGITTFGARRKMLLAISELSKNRRKLFEPPNASCTSFLEGGASGRLPRQYHSDIASVSGRW
Regarding B1, the binding result (in test [1]; in the test with HA-Bicc1 mutD) was “binds” in each case.

B2: fusion of ANKS3 with the DNA-binding domain of Gal4 (Gal4-BD) (protein, UniProt Q6ZW76 1-656)
chain: MSELSDEASEPELLNRSLSMWHGLGTQVSGEELDVPLDLHTAASIGQYEVVKECVQRRELDLNKKNGGGWTPLMYASYIGHDTIVHLLLEAGVSVNVPTPEGQTPLMLASSCGNESIAYFLLQQGAELEMKDIQGWTALFHCTSAGHQHMVRFLLDSGANANVREPICGFTPLMEAAAAGHEIIVQYFLNHGVKVDARDHSGATARMLAKQYGHMKIVALMDTYSPSLPKSLYRSPEKYEDLSSSDESCPAPQRQRPCRKKGVSIHEGPRALARITGIGLGGRAPRPRYEQAPPRGYVTFNSSGENPLEEEGLCCRDVTSPINERDVESSSSSSSREEHAFCANLGPVQSSSSSEGLARAQGLSSEASVESNEDSDHACKSSARKQAKSYMKTKNPDSQWPPRAATDREGFLAESSPQTQRAPYSGPQDLAALLEQIGCLKYLQVFEEQDVDLRIFLTLTESDLKEIGITLFGPKRKMTSAIARWHSSARPPGDALELAYADRLEAEMQELAIQLHKRCEEVEATRGQVCQEQELRAVVESCLLEQDRAREDLQARLRETWALARDAALVLDQLRACQAELSSRVRQDQPPGAATLGLAVPPADSKGWQASLQAMSLPELSGALEDRVREMGQALCLVTQSLEKLQVLNGKKWRET
Turning to B2, the binding entry in test [2] is reported as “binds”.

B3: ANKS3-Flag (protein, UniProt Q6ZW76 1-656)
chain: MSELSDEASEPELLNRSLSMWHGLGTQVSGEELDVPLDLHTAASIGQYEVVKECVQRRELDLNKKNGGGWTPLMYASYIGHDTIVHLLLEAGVSVNVPTPEGQTPLMLASSCGNESIAYFLLQQGAELEMKDIQGWTALFHCTSAGHQHMVRFLLDSGANANVREPICGFTPLMEAAAAGHEIIVQYFLNHGVKVDARDHSGATARMLAKQYGHMKIVALMDTYSPSLPKSLYRSPEKYEDLSSSDESCPAPQRQRPCRKKGVSIHEGPRALARITGIGLGGRAPRPRYEQAPPRGYVTFNSSGENPLEEEGLCCRDVTSPINERDVESSSSSSSREEHAFCANLGPVQSSSSSEGLARAQGLSSEASVESNEDSDHACKSSARKQAKSYMKTKNPDSQWPPRAATDREGFLAESSPQTQRAPYSGPQDLAALLEQIGCLKYLQVFEEQDVDLRIFLTLTESDLKEIGITLFGPKRKMTSAIARWHSSARPPGDALELAYADRLEAEMQELAIQLHKRCEEVEATRGQVCQEQELRAVVESCLLEQDRAREDLQARLRETWALARDAALVLDQLRACQAELSSRVRQDQPPGAATLGLAVPPADSKGWQASLQAMSLPELSGALEDRVREMGQALCLVTQSLEKLQVLNGKKWRET
For B3, the binding result in test [3] and in test [1] was “binds” throughout.
